Measured values from paper PMC12192704.
These are yes or no findings as the source states them, for the method shown. Binding seen in cells or lysates may run through a third protein. Binding can be weak; no strength is given.

By UniProt entry, the sequences of proteins in these tests, tags left out. Where a name states a change or a piece, a line headed by the entry shows the natural chain unless it says otherwise.
UniProt P19634: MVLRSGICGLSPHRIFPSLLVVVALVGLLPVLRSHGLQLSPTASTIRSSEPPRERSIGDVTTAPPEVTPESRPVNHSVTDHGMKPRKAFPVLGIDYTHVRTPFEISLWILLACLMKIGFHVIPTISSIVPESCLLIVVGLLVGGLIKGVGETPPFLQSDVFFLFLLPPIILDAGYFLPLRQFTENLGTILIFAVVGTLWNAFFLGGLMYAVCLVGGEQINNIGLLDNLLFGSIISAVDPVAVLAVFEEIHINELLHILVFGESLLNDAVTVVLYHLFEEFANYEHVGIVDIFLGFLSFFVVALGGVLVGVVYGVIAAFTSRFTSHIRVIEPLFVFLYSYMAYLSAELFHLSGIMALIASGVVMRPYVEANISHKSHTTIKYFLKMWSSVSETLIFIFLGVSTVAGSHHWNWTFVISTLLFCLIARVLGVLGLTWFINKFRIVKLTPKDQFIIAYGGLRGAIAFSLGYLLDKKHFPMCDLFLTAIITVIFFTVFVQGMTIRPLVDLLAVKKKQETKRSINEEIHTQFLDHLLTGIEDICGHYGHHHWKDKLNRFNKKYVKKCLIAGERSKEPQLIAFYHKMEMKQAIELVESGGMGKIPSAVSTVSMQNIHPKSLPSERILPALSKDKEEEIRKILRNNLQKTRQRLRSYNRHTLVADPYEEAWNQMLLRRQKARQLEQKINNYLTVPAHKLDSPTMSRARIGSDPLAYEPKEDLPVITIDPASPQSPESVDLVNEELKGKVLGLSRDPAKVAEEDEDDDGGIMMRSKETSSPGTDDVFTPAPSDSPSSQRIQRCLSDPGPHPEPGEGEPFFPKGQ
UniProt Q9NUM4: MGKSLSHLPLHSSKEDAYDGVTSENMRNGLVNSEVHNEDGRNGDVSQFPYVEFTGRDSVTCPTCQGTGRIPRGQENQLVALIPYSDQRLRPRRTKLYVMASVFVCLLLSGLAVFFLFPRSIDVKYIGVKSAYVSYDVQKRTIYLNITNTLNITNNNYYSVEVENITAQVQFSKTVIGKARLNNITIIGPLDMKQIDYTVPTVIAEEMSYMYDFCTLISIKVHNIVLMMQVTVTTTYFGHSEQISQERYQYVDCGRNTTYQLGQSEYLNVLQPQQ

Each substance was assayed against GST-NHE1 fusion protein (human) (UniProt P19634) (assay: pull-down; purified GST-NHE1 as bait; GFP-TMEM106B, its fragments and mutants as prey, Western blot; only the target purified).
TMEM106B F114A (from UniProt Q9NUM4) was tested, and the binding was “binds”. TMEM106B L111A (from UniProt Q9NUM4) was tested, and the binding was “binds”. For TMEM106B L116A (from UniProt Q9NUM4), the binding was “binds”. For TMEM106B V113A (from UniProt Q9NUM4), the binding was “binds”. In the case of “TMEM106B-LAVFFLF111-117AAAAAAA (from UniProt Q9NUM4)”, the binding is reported as “no binding”. With “TMEM106B-LLLSG106-110AAAAA (from UniProt Q9NUM4)” the binding was “binds”. In the case of “TMEM106B-LYVMA96-100AAAAA (from UniProt Q9NUM4)”, the binding is reported as “binds”. With “TMEM106B-SVFVC101-105AAAAA (from UniProt Q9NUM4)” the binding was “binds”.

These substances were tested against GST-TMEM106B fusion protein (human) (UniProt Q9NUM4) (assay: pull-down; purified GST-TMEM106B as bait; fragments and mutants of GFP-NHE1 as prey, Western blot; only the target purified).
With NHE1 C538A (from UniProt P19634-1) the binding was “binds weakly”. In the case of NHE1 G539A (from UniProt P19634-1), the binding is reported as “binds weakly”. In the case of NHE1 I537A (from UniProt P19634-1), the binding is reported as “binds weakly”. With NHE1-H540A (from UniProt P19634-1) the binding was “binds”.
